The target of experiment [1] is β-catenin (human (endogenous in SUM159, MCF10AT, MCF7)) (UniProt P35222). The experiment is described as follows: co-IP; pooled FPLC fractions 14, 15 and 16 of MCF10AT lysate; IP with anti-Merlin or anti-β-catenin, immunoblot. A general note: In western blotting, separated proteins are transferred to a membrane and probed.
Experiment [2] shares this target. The experiment is described as follows: co-IP; lysate (1 mg) of SUM159 cells transfected with Merlin; IP with anti-Merlin or anti-β-catenin (reverse), protein A/G agarose, 4°C, immunoblot.
In the next experiment the target is pBIND-β-catenin (UniProt P35222). The experiment is described as follows: two-hybrid; mammalian two-hybrid luciferase assay in SUM159 cells: pACT-Merlin, pBIND-β-catenin and pGL4.31 co-transfected; luciferase normalised to total protein.
The target of the next experiment is Merlin (UniProt P35240). Nature of the experiment: co-IP; lysate (1 mg) of SUM159 cells transfected with Merlin; IP with anti-Merlin or anti-β-catenin (reverse), protein A/G agarose, 4°C, immunoblot.
The target of experiment [3] is Merlin (endogenous, MCF10AT) (human (endogenous in MCF10AT)) (UniProt P35240). The experiment is described as follows: co-IP; pooled FPLC fractions 14, 15 and 16 of MCF10AT lysate; IP with anti-Merlin or anti-β-catenin, immunoblot.

Protein sequences, listed by entry. Tags and fused reporters are not part of them. Lines headed by an entry give the natural chain unless they say otherwise; changes in a name come on top. Residues count along the entry.
UniProt P35222: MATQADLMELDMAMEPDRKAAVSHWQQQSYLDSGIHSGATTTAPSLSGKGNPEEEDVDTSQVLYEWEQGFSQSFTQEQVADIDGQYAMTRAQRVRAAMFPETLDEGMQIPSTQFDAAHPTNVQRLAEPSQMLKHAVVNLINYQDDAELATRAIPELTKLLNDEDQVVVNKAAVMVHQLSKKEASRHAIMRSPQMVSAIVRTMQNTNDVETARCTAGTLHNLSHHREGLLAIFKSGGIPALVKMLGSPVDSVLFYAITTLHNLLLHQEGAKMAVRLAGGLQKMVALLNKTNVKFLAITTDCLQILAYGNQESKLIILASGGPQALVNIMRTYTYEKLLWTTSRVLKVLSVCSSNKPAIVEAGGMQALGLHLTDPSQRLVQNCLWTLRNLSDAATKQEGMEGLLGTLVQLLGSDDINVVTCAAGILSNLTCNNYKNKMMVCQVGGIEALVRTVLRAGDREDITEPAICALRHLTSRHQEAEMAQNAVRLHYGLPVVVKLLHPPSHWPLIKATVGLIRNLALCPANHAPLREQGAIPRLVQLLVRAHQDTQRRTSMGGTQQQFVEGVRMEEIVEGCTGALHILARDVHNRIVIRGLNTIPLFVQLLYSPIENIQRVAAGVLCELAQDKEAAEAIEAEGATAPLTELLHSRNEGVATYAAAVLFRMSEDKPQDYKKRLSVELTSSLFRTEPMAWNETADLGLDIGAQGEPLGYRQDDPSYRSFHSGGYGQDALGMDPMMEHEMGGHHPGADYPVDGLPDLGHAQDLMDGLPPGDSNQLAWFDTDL
pBIND-β-catenin: residues 2-781 of P35222
UniProt P35240: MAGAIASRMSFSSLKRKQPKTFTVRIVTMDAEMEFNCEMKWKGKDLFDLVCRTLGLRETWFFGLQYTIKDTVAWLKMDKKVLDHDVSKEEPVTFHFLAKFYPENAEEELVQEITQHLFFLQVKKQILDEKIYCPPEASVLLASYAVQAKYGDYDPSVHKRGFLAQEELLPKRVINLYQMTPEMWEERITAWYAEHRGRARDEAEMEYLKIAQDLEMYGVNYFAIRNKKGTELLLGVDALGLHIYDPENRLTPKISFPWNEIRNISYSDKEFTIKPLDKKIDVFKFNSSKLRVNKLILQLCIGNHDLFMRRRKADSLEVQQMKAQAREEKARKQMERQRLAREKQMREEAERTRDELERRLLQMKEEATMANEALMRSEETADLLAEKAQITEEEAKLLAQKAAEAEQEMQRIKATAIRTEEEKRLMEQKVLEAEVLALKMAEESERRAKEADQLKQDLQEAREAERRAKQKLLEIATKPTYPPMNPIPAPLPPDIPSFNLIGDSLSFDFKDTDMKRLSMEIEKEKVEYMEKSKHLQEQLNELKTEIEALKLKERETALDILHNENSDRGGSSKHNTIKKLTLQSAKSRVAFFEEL

Results are given in words; binding and its absence hold for the method and conditions named. For some assays here: In cells and extracts the contact can be indirect. Some binding calls cover weakened binding; strength is not graded here.

With “Merlin (endogenous, MCF10AT) (from UniProt P35240 1-595)”, in experiment [1], the binding result was “binds”.
Regarding Merlin (from UniProt P35240 1-595), in experiment [2], the binding result is “binds”.
With pACT-Merlin (from UniProt P35240 2-595), the binding entry with pBIND-β-catenin is “binds”.
With β-catenin (from UniProt P35222 1-781), the binding entry (with Merlin; in experiment [3]) was “binds” throughout.

Values taken from paper PMC4951266.
